In this test the target is T1, Dynein axonemal assembly factor 5 (DNAAF5), in HCC cell lysate (human) (UniProt Q86Y56).
T1 sequence: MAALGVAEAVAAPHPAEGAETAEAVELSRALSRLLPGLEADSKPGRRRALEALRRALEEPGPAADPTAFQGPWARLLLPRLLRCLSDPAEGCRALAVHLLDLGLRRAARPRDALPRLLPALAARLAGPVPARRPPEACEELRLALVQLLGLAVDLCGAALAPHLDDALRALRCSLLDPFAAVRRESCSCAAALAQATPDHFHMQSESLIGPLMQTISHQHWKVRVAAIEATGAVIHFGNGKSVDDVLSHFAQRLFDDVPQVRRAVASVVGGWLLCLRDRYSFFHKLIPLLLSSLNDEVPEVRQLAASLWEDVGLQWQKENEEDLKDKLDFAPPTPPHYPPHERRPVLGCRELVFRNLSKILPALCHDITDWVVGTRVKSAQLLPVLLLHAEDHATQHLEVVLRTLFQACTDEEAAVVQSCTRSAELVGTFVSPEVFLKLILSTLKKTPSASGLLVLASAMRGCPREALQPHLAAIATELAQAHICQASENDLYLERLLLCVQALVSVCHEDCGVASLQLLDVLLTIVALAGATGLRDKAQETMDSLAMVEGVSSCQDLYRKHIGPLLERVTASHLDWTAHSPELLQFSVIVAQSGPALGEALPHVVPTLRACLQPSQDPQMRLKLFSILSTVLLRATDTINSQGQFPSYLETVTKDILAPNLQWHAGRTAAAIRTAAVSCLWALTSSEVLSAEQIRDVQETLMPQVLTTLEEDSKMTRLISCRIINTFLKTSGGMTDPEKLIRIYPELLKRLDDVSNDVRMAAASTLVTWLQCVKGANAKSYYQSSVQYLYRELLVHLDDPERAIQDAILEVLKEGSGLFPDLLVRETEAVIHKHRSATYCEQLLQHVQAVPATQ
The experiment in a line: affinity purification with mass spectrometry; co-immunoprecipitation of DNAAF5 followed by mass spectrometry of interacting proteins; cells not given.

These are yes or no findings as the source states them, for the method shown. Binding seen in cells or lysates may run through a third protein. Here binding means that the protein was enriched with, or labelled near, the bait; the list need not be complete.

B1: PFKL (phosphofructokinase, liver type), in HCC cell lysate (enzyme, UniProt P17858 1-780)
chain: MAAVDLEKLRASGAGKAIGVLTSGGDAQGMNAAVRAVTRMGIYVGAKVFLIYEGYEGLVEGGENIKQANWLSVSNIIQLGGTIIGSARCKAFTTREGRRAAAYNLVQHGITNLCVIGGDGSLTGANIFRSEWGSLLEELVAEGKISETTARTYSHLNIAGLVGSIDNDFCGTDMTIGTDSALHRIMEVIDAITTTAQSHQRTFVLEVMGRHCGYLALVSALASGADWLFIPEAPPEDGWENFMCERLGETRSRGSRLNIIIIAEGAIDRNGKPISSSYVKDLVVQRLGFDTRVTVLGHVQRGGTPSAFDRILSSKMGMEAVMALLEATPDTPACVVTLSGNQSVRLPLMECVQMTKEVQKAMDDKRFDEATQLRGGSFENNWNIYKLLAHQKPPKEKSNFSLAILNVGAPAAGMNAAVRSAVRTGISHGHTVYVVHDGFEGLAKGQVQEVGWHDVAGWLGRGGSMLGTKRTLPKGQLESIVENIRIYGIHALLVVGGFEAYEGVLQLVEARGRYEELCIVMCVIPATISNNVPGTDFSLGSDTAVNAAMESCDRIKQSASGTKRRVFIVETMGGYCGYLATVTGIAVGADAAYVFEDPFNIHDLKVNVEHMTEKMKTDIQRGLVLRNEKCHDYYTTEFLYNLYSSEGKGVFDCRTNVLGHLQQGGAPTPFDRNYGTKLGVKAMLWLSEKLREVYRKGRVFANAPDSACVIGLKKKAVAFSPVTELKKDTDFEHRMPREQWWLSLRLMLKMLAQYRISMAAYVSGELEHVTRRTLSMDKGF
In the case of B1, the binding entry is given as “binds”.

B2: USP39 (deubiquitination protein), in HCC cell lysate (protein, UniProt Q53GS9 1-565)
chain: MSGRSKRESRGSTRGKRESESRGSSGRVKRERDREREPEAASSRGSPVRVKREFEPASAREAPASVVPFVRVKREREVDEDSEPEREVRAKNGRVDSEDRRSRHCPYLDTINRSVLDFDFEKLCSISLSHINAYACLVCGKYFQGRGLKSHAYIHSVQFSHHVFLNLHTLKFYCLPDNYEIIDSSLEDITYVLKPTFTKQQIANLDKQAKLSRAYDGTTYLPGIVGLNNIKANDYANAVLQALSNVPPLRNYFLEEDNYKNIKRPPGDIMFLLVQRFGELMRKLWNPRNFKAHVSPHEMLQAVVLCSKKTFQITKQGDGVDFLSWFLNALHSALGGTKKKKKTIVTDVFQGSMRIFTKKLPHPDLPAEEKEQLLHNDEYQETMVESTFMYLTLDLPTAPLYKDEKEQLIIPQVPLFNILAKFNGITEKEYKTYKENFLKRFQLTKLPPYLIFCIKRFTKNNFFVEKNPTIVNFPITNVDLREYLSEEVQAVHKNTTYDLIANIVHDGKPSEGSYRIHVLHHGTGKWYELQDLQVTDILPQMITLSEAYIQIWKRRDNDETNQQGA
In the case of B2, the binding result is listed as “binds”.

The values are drawn from paper PMC9582515.
